Results from publication PMC6646387, “Identification of intracellular cavin target proteins reveals cavin-PP1alpha interactions regulate apoptosis” (Nature Communications, 2019).
Results are given in words; binding and its absence hold for the method and conditions named. For part of these data: Binding seen in cells or lysates may run through a third protein. Some results given as binding are weak or reduced against the parent protein; the word gives no strength. For part of these data: Where a sequence is shown, tags or fusion partners need not be part of it. Each block holds one molecule with its values, some of them ahead of it.

By UniProt entry, the sequences of proteins in these tests, tags left out.
UniProt P62136: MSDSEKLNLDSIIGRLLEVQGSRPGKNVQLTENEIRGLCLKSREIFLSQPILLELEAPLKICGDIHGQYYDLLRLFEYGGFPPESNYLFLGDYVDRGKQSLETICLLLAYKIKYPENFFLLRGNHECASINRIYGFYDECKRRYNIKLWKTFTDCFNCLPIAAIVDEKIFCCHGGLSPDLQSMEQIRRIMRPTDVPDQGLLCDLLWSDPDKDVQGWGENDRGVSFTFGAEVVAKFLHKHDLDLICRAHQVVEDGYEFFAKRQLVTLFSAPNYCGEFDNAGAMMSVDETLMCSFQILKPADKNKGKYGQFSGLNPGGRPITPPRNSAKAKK
UniProt P53396: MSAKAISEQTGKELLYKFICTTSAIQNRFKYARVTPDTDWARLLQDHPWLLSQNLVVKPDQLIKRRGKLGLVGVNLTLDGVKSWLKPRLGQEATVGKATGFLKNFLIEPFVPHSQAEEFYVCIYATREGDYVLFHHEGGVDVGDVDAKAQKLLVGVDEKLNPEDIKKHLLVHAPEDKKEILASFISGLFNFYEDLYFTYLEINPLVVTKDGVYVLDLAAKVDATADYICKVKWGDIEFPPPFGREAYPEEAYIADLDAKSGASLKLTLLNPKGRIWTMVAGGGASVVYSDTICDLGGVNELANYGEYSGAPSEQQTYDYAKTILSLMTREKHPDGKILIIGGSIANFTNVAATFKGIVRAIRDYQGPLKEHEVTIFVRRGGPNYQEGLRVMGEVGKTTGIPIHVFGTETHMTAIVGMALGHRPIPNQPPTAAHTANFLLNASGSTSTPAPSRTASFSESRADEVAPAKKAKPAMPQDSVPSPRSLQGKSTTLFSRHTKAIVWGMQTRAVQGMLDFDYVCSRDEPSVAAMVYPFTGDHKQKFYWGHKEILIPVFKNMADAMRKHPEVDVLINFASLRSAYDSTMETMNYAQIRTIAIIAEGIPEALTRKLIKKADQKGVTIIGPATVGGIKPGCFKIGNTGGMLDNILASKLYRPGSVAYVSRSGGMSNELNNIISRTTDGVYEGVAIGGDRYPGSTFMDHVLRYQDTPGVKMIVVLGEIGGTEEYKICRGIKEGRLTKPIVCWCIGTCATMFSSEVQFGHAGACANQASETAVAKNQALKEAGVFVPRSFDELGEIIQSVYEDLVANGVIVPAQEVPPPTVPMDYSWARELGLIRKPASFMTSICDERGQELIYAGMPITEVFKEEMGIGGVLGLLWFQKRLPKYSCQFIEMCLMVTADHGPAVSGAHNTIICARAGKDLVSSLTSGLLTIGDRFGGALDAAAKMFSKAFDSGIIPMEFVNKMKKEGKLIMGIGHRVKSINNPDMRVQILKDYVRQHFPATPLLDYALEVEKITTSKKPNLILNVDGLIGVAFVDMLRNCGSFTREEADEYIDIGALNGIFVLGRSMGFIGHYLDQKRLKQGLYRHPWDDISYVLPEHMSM
UniProt O00567: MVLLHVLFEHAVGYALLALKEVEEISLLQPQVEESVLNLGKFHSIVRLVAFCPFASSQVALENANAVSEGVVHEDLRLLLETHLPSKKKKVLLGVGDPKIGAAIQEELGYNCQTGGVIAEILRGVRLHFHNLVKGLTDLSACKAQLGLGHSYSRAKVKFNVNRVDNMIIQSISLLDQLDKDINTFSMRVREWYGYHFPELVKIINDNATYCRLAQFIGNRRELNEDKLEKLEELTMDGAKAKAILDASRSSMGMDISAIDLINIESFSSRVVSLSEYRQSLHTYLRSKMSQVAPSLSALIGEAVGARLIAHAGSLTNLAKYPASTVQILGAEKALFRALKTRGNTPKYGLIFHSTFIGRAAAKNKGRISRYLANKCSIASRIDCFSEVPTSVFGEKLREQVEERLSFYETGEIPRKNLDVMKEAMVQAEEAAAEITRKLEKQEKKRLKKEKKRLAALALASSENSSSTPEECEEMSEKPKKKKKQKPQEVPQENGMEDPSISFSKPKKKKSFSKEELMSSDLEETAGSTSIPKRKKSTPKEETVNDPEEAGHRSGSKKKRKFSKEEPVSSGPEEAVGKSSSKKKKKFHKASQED
UniProt Q15717: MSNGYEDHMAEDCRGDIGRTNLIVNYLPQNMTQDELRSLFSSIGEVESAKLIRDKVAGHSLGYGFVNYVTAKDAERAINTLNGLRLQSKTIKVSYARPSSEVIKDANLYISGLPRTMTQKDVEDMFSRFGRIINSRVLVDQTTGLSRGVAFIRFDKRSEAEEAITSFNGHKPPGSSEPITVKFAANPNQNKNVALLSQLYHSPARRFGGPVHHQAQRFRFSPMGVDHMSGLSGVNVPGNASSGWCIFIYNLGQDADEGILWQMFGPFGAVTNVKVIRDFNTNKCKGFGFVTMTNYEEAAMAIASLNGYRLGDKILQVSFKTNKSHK

Columns and labels:
[1] = target: T1, GFP-tagged Cavin1 FL, cell-free expressed (AlphaLISA) (mouse) (UniProt O54724); test: AlphaScreen or HTRF; AlphaLISA: GFP-tagged cavin constructs and Cherry-tagged PP1α co-expressed in LTE, diluted 100 times in 25 mM HEPES, 50 mM NaCl, 0.1% BSA, 0.01% Nonidet P-40; anti-GFP acceptor beads, biotinylated mCherry nanobody on streptavidin donor beads, room temperature; GFP-FKBP as negative control
T1 sequence: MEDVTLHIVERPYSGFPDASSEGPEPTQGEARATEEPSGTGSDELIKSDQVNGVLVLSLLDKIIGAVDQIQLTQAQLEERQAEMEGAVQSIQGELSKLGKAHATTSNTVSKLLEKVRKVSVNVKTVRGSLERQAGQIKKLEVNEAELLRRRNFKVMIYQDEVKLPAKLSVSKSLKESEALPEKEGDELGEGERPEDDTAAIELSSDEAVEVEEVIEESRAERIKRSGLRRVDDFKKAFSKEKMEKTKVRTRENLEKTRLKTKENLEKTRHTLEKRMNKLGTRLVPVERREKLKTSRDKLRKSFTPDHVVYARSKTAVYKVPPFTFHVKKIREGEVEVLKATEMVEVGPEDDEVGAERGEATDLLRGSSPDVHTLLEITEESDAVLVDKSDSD

[2] = target: T2, GFP-tagged Cavin1 HR2 domain, cell-free expressed (mouse) (UniProt O54724); test: as above
T2 sequence: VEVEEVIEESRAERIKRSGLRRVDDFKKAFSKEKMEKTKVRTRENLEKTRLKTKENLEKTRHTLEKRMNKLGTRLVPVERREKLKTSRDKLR

[3] = target: T3, GFP-tagged Cavin3 HR2 domain, cell-free expressed (mouse) (UniProt Q91VJ2); test: as above
T3 sequence: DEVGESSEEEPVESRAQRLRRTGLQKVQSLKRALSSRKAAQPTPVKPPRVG

[4] = target: T4, Cavin3, cell-free expressed (ALPHAScreen) (mouse) (UniProt Q91VJ2); test: AlphaScreen or HTRF; ALPHAScreen (cMyc detection kit, streptavidin donor beads) on pairs co-expressed in Leishmania tarentolae cell-free extract, GFP- and Cherry-cMyc-tagged, both configurations averaged, GFP alone subtracted, values above 2000 counted as positive, room temperature
T4 sequence: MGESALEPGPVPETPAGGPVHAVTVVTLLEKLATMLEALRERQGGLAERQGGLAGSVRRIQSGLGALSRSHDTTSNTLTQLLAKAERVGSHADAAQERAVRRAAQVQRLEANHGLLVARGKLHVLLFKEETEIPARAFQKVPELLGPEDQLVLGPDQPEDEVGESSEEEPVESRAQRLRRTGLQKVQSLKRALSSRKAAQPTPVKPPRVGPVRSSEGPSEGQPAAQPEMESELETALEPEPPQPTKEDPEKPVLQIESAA

[5] = target: T5, Cavin1, cell-free expressed (ALPHAScreen) (mouse) (UniProt O54724); test: as above
T5 sequence: T1 sequence

[6] = target: T6, Cavin2, cell-free expressed (ALPHAScreen) (mouse) (UniProt Q63918); test: as above
T6 sequence: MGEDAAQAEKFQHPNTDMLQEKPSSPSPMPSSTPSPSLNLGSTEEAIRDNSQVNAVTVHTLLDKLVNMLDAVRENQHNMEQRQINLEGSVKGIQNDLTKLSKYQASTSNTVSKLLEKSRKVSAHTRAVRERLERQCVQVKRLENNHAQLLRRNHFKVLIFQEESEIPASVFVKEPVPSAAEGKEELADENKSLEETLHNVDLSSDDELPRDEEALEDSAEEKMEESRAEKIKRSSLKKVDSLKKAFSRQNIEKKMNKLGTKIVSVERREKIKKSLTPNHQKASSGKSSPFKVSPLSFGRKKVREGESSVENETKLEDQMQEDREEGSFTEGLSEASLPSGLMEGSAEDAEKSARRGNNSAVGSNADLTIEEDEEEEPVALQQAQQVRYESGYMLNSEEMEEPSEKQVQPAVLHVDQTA

Cavin3-GFP (mouse) [7] = target: T7, Cavin3-GFP (mouse) (UniProt Q91VJ2); test: co-IP; GFP Trap pulldown from transfected A431 cells (RIPA buffer), control or UV-treated, western blot
T7 sequence: T4 sequence

Cavin1-GFP (mouse) [8] = target: T8, Cavin1-GFP (mouse) (UniProt O54724); test: proximity ligation; Duolink PLA in MCF-7 cells transfected with GFP-tagged cavins, anti-GFP (mouse) and anti-PP1α (rabbit) antibodies; GFP-vector as control
T8 sequence: T1 sequence

Cavin3-GFP (mouse) [9] = target: T7, Cavin3-GFP (mouse); test: as above
[10] = target: T9, endogenous Cavin3 (human (endogenous in A431 and MDA-MB-231)) (UniProt Q969G5); test: proximity ligation; Duolink PLA of endogenous proteins in MDA-MB-231 cells, untreated or after UV treatment
T9 sequence: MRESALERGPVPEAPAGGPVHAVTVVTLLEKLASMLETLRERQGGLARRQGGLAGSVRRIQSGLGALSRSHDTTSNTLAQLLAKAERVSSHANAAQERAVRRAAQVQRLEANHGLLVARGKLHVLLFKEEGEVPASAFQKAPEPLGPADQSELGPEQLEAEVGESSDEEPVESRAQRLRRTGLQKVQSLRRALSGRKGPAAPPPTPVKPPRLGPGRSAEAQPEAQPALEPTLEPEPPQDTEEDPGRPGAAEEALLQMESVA

[11] = target: T10, endogenous Cavin1 (human (endogenous in A431)) (UniProt Q6NZI2); test: proximity ligation; Duolink PLA of endogenous proteins in untreated A431 cells (steady state)
T10 sequence: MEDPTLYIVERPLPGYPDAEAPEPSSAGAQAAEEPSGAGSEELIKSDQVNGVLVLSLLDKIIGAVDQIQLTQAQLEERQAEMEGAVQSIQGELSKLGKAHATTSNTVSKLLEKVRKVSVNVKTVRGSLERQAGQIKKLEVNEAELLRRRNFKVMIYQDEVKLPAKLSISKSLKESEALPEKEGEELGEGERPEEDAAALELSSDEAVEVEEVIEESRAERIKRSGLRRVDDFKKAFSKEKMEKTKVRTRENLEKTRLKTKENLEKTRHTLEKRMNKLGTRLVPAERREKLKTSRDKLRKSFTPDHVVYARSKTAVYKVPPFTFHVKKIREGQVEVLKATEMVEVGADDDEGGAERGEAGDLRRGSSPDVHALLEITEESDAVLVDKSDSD

[12] = target: T9, endogenous Cavin3 (human (endogenous in A431 and MDA-MB-231)); test: as above
Cavin1-GFP (mouse) [13] = target: T8, Cavin1-GFP (mouse); test: co-IP; GFP Trap pulldown from transfected MCF-7 cells (cytosolic fractions, RIPA buffer, 1 h 4 °C), western blot
Cavin3-GFP (mouse) [14] = target: T7, Cavin3-GFP (mouse); test: as above
[15] = target: T11, GFP-tagged Cavin3 HR1 domain, in MCF-7 cells (mouse) (UniProt Q91VJ2); test: as above
T11 sequence: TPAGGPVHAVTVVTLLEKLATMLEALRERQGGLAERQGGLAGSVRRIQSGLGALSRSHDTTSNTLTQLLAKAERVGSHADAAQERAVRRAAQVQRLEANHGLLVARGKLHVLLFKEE

Cavin2-GFP (mouse) = target: T12, Cavin2-GFP (mouse) (UniProt Q63918); test: as above
T12 sequence: T6 sequence

[16] = target: T13, GFP-tagged Cavin3 HR2 domain, in MCF-7 cells (mouse) (UniProt Q91VJ2); test: as above
T13 sequence: T3 sequence

GFP-PP1α = target: T14, GFP-PP1α (UniProt P62136 1-330); test: as above
T14 construct: serine/threonine-protein phosphatase PP1alpha catalytic subunit (PP1α); construct provided by the Trinkle-Mulcahy Laboratory; printed both as GFP-PP1α and PP1α-GFP; also called PP1α-GFP; PP1alpha-GFP; source: MCF-7 or A431, transfected, in lysate

mCherry-Cavin3 (mouse) = mCherry-Cavin3 (mouse) (UniProt Q91VJ2); test: single-molecule coincidence detection; PNS fraction of MCF-7 cells cotransfected with GFP-PP1α and Cherry-Cavin1 or Cherry-Cavin3, in PBS, diluted to about 1 nM; two-colour confocal detection; C = mCherry/(GFP+mCherry); oligomeric state from burst brightness
mCherry-Cavin1 (mouse) = mCherry-Cavin1 (mouse) (UniProt O54724); test: as above

- binding [1]: binds
- binding [2]: binds
- binding [3]: binds
Molecule: PP1α-mCherry, cell-free expressed (AlphaLISA) (from UniProt P62136 1-330) (enzyme)

- binding [4]: binds
- binding [5]: binds
Molecule: ATP citrate lyase (ACLY), cell-free expressed (from UniProt P53396 1-1101) (enzyme)

- binding [5]: binds
Molecule: nucleolar protein 56 (NOP56), cell-free expressed (from UniProt O00567 1-594)

- binding [4]: binds
- binding [6]: binds
- binding [5]: binds
Molecule: PP1α, cell-free expressed (ALPHAScreen) (from UniProt P62136 1-330) (enzyme)

- binding [4]: binds
- binding [6]: binds
- binding [5]: binds
Molecule: ELAV-like RNA-binding protein 1 (ELAV1), cell-free expressed (from UniProt Q15717 1-326)

- binding (Cavin3-GFP (mouse) [7]): binds
- binding (Cavin1-GFP (mouse) [8]): binds
- binding (Cavin3-GFP (mouse) [9]): binds
- binding [10]: binds
- binding [11]: binds weakly
- binding [12]: binds weakly
- binding (Cavin1-GFP (mouse) [13]): binds
- binding (Cavin3-GFP (mouse) [14]): binds
- binding [15]: no binding
- binding (Cavin2-GFP (mouse)): binds
- binding [16]: binds
Molecule: endogenous PP1α (from UniProt P62136 1-330) (enzyme)

- binding [4]: binds
- binding [6]: binds
- binding [5]: binds
Molecule: p53, cell-free expressed (from UniProt P04637 1-393)

- binding (GFP-PP1α): binds
B1: mCherry-Cavin3 (natural protein, mouse, UniProt Q91VJ2 1-260, looked up)
chain: T4 sequence
notes: Murine Cavin-3 (PRKCDBP), amplified from NIH-3T3 fibroblast cDNA, in an mCherry vector; also called mCherry-tagged Cavin3; source: MCF-7, transfected, in lysate (cytosolic or PNS fraction)
- binding (mCherry-Cavin3 (mouse)): no binding

- binding (GFP-PP1α): binds
B2: mCherry-Cavin1 (natural protein, mouse, UniProt O54724 1-392, looked up)
chain: T1 sequence
notes: Murine Cavin-1 (PTRF, caveolae-associated protein 1); oligomeric in MCF-7 cells by burst brightness; also called mCherry-tagged Cavin1; source: MCF-7, transfected, in lysate (cytosolic or PNS fraction)
- binding (mCherry-Cavin1 (mouse)): binds
